At least one read-out could not be matched to a standard name with certainty. *1 amine or outer side, *2 acyl side, *3 side chain or, on linkers, in order; H or OH if unused. Where a SMILES comes first, the peptide text is derived from it. Bridges are numbered along the chain shown (N, C = ends). [ ]: non-standard residue; d: D form. The star is where a group is joined. X1 = CC[C@H](C)[C@@H](N[*:1])[C@@H](O)CC(=O)O[C@H](C(=O)[C@H](C)C(=O)[*:2])C(C)C; NMeY = CN[C@@H](Cc1ccc(O)cc1)C(=O)O; dNMeL = CN[C@H](CC(C)C)C(=O)O; Pyruvoyl = CC(=O)C(=O)*
Experiments:
[1] = test system: HMGN1 secreted from senescent cells; assay: HMGN1 secretion (ELISA) from doxorubicin-induced senescent cells, Example 17; type: cell-based, human; conditions: senescent untreated = 100%; 30 μM; 90 μM for LX-5211, 5433, 6530, 9105, 9118, 9321, 9602; 2.4 mM for LX-9336
[2] = test system: HMGN1 secreted from senescent A549 cells; assay: HMGN1 secretion (ELISA) from senescent A549 cells, Example 18, Table 14; type: cell-based, human; conditions: doxorubicin-senescent A549, without test compound (DMSO) = 100%; 30 μM (LX-5211, LX-5433, LX-6530, LX-6800, LX-9105, LX-9118, LX-9131, LX-9136, LX-9302, LX-9321, LX-9565, LX-9602 at 90 μM; LX-9336 at 2.4 mM)

SMILES | HMGN1 [1] | HMGN1 [2]
C[C@@]12C[C@@]3(O)O[C@@H](O1)[C@]1(COC(=O)c4ccccc4)[C@H]3C[C@@]12O[C@@H]1O[C@H](CO)[C@@H](O)[C@H](O)[C@H]1O [LX-6804, Paeoniflorin] | 201% | 326%
CCOC(=O)C1=CCCC[C@H]1S(=O)(=O)Nc1ccc(F)cc1Cl [LX-9137, Resatorvid] | 226% | 264%
CC12CCN(CC1)C(CNC(=O)C(F)(F)F)C2=O (centres unmarked) [LX-5706] | 269% | 243%
CC[C@H](C)[C@H]1NC(=O)[C@@H](NC(=O)[C@@H](CC(C)C)N(C)C(=O)[C@@H]2CCCN2C(=O)C(C)=O)[C@@H](C)OC(=O)[C@H](Cc2ccc(OC)cc2)N(C)C(=O)[C@@H]2CCCN2C(=O)[C@H](CC(C)C)NC(=O)[C@@H](C)C(=O)[C@H](C(C)C)OC(=O)C[C@@H]1O [LX-6212, Plitidepsin] (Pyruvoyl-P[dNMeL]T[X1]LP[NMeY](Me); ester 3-C) | 306% | 327%
CC1(C)[C@H]2COc3ccc4ccccc4c3[C@H]2N=C2SC(c3ccccc3)=C(c3ccccc3)N21 [LX-5201] | 294% | 269%
COc1ccccc1OCC(O)CN1CCN(CC(=O)Nc2c(C)cccc2C)CC1 (centres unmarked) [LX-9565, Ranolazine] | 204% | 329%
CCNCC[C@H](O)CNCCCCNC[C@@H](O)CCNCC [LX-6516, Ivospemin] | 270% | 297%
NS(=O)(=O)OC[C@@H]1C[C@@H](n2ccc3c(N[C@H]4CCc5ccccc54)ncnc32)C[C@@H]1O [LX-6202, Pevonedistat] | 241% | 311%
COc1c(C)c2c(c(O)c1C/C=C(\C)CCC(=O)O)C(=O)OC2 [LX-9725, Mycophenolic acid] | 283% | 293%
Cc1nc(C(=O)NCC(=O)O)c(O)c2ccc(Oc3ccccc3)cc12 [LX-6806, Roxadustat] | 311% | 223%
CC[C@@H]1C(=O)N(C)c2cnc(Nc3ccc(C(=O)N[C@H]4CC[C@H](N5CCN(CC6CC6)CC5)CC4)cc3OC)nc2N1C(C)C [LX-6207, Volasertib] | 248% | 256%
CCc1ccc(CCOc2ccc(CC3SC(=O)NC3=O)cc2)nc1 (centres unmarked) [LX-9422, Pioglitazone] | 244% | 310%
CC(C)(CCCCCC(O)CCCCCC(C)(C)C(=O)O)C(=O)O [LX-9602, Bempedoic acid] | 287% | 303%
Cn1cc(C[C@@H](N)C(=O)O)c2ccccc21 [LX-8801, Indoximod] | 274% | 281%
C=CC[C@@H]1/C=C(\C)C[C@H](C)C[C@H](OC)[C@H]2O[C@@](O)(C(=O)C(=O)N3CCCC[C@H]3C(=O)O[C@H](/C(C)=C/[C@@H]3CC[C@@H](O)[C@H](OC)C3)[C@H](C)[C@@H](O)CC1=O)[C@H](C)C[C@@H]2OC [LX-9314, Tacrolimus] | 320% | 291%
[2H]C12CCN(CC1)C(CO)(COC)C2=O (centres unmarked) [LX-5722] | 242% | 202%
O=C1C2=C(CCN(Cc3ccccc3)C2)N2CCN=C2N1Cc1ccc(F)cc1F [LX-7262] | 232% | 249%
Nc1ncn([C@H]2C[C@@H](O)[C@@H](CO)S2)c(=O)n1 [LX-7288, 4′-thio-5-aza-2′-deoxycytidine] | 275% | 281%
COc1ccc(Cl)cc1C(=O)NCCc1ccc(S(=O)(=O)NC(=O)NC2CCCCC2)cc1 [LX-9335, glyburide] | 239% | 246%
C#CC(=O)N1[C@@H](CCCC)Cc2cc(OC)ccc2[C@@H]1c1ccc(NC23CC4CC(CC(C4)C2)C3)cc1 [LX-5411] | 231% | 240%
COc1ccc(F)cc1C(=O)NCc1ccc(-c2nn([C@@H](C)C(F)(F)F)c(N)c2C(N)=O)cc1 [LX-6981, Pirtobrutinib] | – | 255%

From patent US20260306460A1, “COMPOSITION FOR REMOVING AND INHIBITING SENESCENT CELLS, AND USES THEREOF” (LIFECEUTIX CO., LTD., priority 2023, published 2026)
